These are yes or no findings as the source states them, for the method shown. In cells and extracts the contact can be indirect. Some binding calls cover weakened binding; strength is not graded here.
What was measured:
V5-DNAJB6b Y53E (human) [1] = target: V5-DNAJB6b Y53E (human) (UniProt O75190); assay: proximity ligation
V5-DNAJB6b Y53F (human) [2] = target: V5-DNAJB6b Y53F (human) (UniProt O75190); assay: proximity ligation
[3] = target: V5-tagged DNAJB6b wild-type (human) (UniProt O75190); assay: proximity ligation
V5-DNAJB6b Y53E (human) [4] = target: V5-DNAJB6b Y53E (human) (UniProt O75190); assay: co-IP
V5-DNAJB6b Y53F (human) [5] = target: V5-DNAJB6b Y53F (human) (UniProt O75190); assay: co-IP
[6] = target: V5-tagged DNAJB6b wild-type (human) (UniProt O75190); assay: co-IP

Sequences of proteins named here, by UniProt entry; tags and fusion partners are left off. A change or cut given only in a name is not applied to a line headed by its entry. A line that says so, or that is headed by a name, gives the form on record, which may keep a tag or linker.
V5-DNAJB6b Y53E (O75190, form named): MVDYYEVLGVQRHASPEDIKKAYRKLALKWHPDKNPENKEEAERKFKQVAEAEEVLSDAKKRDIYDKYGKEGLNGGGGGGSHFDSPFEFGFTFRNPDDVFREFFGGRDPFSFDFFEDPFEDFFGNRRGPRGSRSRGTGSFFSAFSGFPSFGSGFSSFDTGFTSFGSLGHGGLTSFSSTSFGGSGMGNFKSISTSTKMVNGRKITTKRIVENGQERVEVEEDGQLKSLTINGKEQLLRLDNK
V5-DNAJB6b Y53F (O75190, form named): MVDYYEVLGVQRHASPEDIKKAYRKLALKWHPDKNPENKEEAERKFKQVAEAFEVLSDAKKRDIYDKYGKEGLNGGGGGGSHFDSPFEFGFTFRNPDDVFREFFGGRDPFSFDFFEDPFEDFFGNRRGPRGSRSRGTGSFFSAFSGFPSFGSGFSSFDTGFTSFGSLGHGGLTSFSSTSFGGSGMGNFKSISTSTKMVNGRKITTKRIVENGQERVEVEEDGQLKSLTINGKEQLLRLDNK
V5-tagged DNAJB6b wild-type (O75190, form named): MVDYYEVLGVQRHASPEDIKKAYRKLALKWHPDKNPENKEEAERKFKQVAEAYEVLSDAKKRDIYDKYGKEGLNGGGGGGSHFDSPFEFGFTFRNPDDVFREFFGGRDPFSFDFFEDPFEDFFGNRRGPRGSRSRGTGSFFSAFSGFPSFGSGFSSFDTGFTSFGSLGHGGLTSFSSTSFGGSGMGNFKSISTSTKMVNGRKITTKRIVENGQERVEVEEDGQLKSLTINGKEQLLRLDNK
UniProt P11142: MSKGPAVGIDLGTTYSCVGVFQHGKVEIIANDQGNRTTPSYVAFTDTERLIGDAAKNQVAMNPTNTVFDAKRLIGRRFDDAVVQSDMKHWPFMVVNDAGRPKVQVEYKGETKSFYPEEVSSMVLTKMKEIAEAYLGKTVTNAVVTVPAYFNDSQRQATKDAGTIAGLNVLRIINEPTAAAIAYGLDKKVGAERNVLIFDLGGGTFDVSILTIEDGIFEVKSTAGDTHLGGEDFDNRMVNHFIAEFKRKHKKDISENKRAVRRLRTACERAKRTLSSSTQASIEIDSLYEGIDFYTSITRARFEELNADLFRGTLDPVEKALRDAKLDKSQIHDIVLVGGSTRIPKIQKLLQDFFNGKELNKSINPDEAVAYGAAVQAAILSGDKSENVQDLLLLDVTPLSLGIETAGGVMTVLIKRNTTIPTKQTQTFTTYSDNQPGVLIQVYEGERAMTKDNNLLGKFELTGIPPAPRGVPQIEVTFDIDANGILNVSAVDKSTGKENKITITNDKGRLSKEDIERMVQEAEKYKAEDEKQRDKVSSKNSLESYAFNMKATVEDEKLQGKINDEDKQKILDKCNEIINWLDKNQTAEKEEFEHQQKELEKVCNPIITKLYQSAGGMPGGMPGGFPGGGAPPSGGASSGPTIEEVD
UniProt P0DMV8: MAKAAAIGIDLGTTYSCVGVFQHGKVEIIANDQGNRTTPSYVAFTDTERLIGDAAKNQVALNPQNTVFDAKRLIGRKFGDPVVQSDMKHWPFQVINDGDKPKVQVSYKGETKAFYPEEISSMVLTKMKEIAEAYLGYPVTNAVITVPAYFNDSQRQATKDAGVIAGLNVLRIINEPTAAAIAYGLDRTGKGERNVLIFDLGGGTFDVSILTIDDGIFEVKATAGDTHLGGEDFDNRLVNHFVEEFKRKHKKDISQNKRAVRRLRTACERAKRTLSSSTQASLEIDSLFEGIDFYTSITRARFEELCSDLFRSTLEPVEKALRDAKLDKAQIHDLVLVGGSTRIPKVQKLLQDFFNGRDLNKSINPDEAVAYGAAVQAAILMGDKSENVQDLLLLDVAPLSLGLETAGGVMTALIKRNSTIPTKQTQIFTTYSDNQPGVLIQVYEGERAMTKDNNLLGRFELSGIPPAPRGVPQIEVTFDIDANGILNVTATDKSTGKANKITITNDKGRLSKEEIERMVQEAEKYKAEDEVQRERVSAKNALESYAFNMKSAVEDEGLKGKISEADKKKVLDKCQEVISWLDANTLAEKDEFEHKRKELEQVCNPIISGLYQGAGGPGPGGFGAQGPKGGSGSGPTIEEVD

Row | Substance | binding (V5-DNAJB6b Y53E (human) [1]) | binding (V5-DNAJB6b Y53F (human) [2]) | binding [3] | binding (V5-DNAJB6b Y53E (human) [4]) | binding (V5-DNAJB6b Y53F (human) [5]) | binding [6]
1 | HSPA8 (from UniProt P11142 1-646) | binds | binds weakly | binds | binds | binds | binds
2 | HSPA1A (from UniProt P0DMV8 1-641) | – | – | – | binds | binds | binds

From paper doi:10.1101/2025.11.14.688390
